The test system of the test is HEK293A TEAD-LUC reporter. Nature of the test: TEAD-luciferase reporter activity (YAP activation), robust Z score vs plate; higher = stronger YAP/TEAD activation. As to conditions: 24 h.

SMILES strings stand for the structures. This is one part of the list. This data set is noisy: repeats of one test often differ as much as different tests do.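 Human kidney-derived cells stably carry a construct in which eight TEAD-binding elements drive luciferase, measured by luminescence in a drug-repurposing library screen. A hit is any compound whose signal exceeds the plate mean by more than five robust Z scores.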

For `Cn1nnc(-c2ccc(-c3ccc(N4C[C@H](COP(=O)([O-])O)OC4=O)cc3F)cn2)n1` [Tedizolid phosphate sodium], the TEAD-luciferase reporter activity is inactive: 1.11 (compound concentration: 200 nM), inactive: -1.35 (compound concentration: 2 uM) and inactive: -0.653 (compound concentration: 10 uM).

Consider `CCC(/C=C/C(=O)N1CCc2ccccc21)NC(=O)C1(N)CCOCC1` (centres undefined), for which the TEAD-luciferase reporter activity by setting is: (compound concentration: 200 nM) inactive: 0.555; (compound concentration: 2 uM) inactive: -0.298; (compound concentration: 10 uM) inactive: -0.181.

For `CCCCCCCCCCCC(=O)c1c(O)cc(O)c(C2CC(c3ccc(O)cc3)Oc3cc(O)ccc32)c1O` (centres undefined), the TEAD-luciferase reporter activity is, setting by setting: (compound concentration: 200 nM) inactive: -0.914; (compound concentration: 2 uM) inactive: -0.0903; (compound concentration: 10 uM) inactive: 2.

As for `OC(C1=CC(=C(c2ccccn2)c2ccccn2)C=C1)(c1ccccn1)c1ccccn1`, the TEAD-luciferase reporter activity is inactive: 0.739 (compound concentration: 200 nM), inactive: -0.425 (compound concentration: 2 uM) and inactive: 1.9 (compound concentration: 10 uM).

As to `CC(C)Cc1ccc(C(C)C(=O)OCc2ccccn2)cc1` (centres undefined) [ibuprofen piconol], the TEAD-luciferase reporter activity is inactive: -1.29 (compound concentration: 200 nM), inactive: -0.799 (compound concentration: 2 uM) and inactive: -0.41 (compound concentration: 10 uM).

As for `C[C@H](NC(=O)c1c(C(F)F)nn(C)c1Oc1cccc(C(F)(F)F)c1)c1ccc(C(=O)O)cc1`, the TEAD-luciferase reporter activity is, setting by setting: (compound concentration: 200 nM) inactive: -0.521; (compound concentration: 2 uM) inactive: -1.73; (compound concentration: 10 uM) inactive: 0.0944.

With `CCC(=O)N(C)Cc1c(-c2ccc(Cl)cc2)nc2ccccn12`, the TEAD-luciferase reporter activity by setting is: (compound concentration: 200 nM) inactive: -0.728; (compound concentration: 2 uM) inactive: -0.26; (compound concentration: 10 uM) inactive: -0.954.

For `CC(=O)O[C@]1(C(C)=O)CC[C@H]2[C@@H]3CCC4=CC(=O)CC[C@]4(C)[C@H]3CC[C@@]21C` [17-Acetoxyprogesterone], the TEAD-luciferase reporter activity runs as follows: (compound concentration: 200 nM) inactive: 4.3; (compound concentration: 2 uM) inactive: 1.81; (compound concentration: 10 uM) inactive: 0.7.

In the case of `CC1(C)CC[C@]2(C)CC[C@]3(C)C(=CC[C@@H]4[C@@]5(C)CC[C@@H](O)[C@](C)(C(=O)O)[C@@H]5CC[C@]43C)[C@@H]2C1` [Boswellic acid], the TEAD-luciferase reporter activity is, setting by setting: (compound concentration: 200 nM) inactive: -1.86; (compound concentration: 10 uM) inactive: 0.388.

Consider `CC1(C)CC[C@]2(C)CC[C@]3(C)C(=CC[C@@H]4[C@@]5(C)CC[C@@H](O)[C@](C)(C(=O)O)[C@@H]5CC[C@]43C)[C@@H]2C1` [Boswellic acids], for which the TEAD-luciferase reporter activity (compound concentration: 2 uM) was inactive: -0.139.

For `CCCc1c(Cn2ccnc2-c2ncccc2F)ncn2nc(C)nc12` [adipiplon], the TEAD-luciferase reporter activity (compound concentration: 200 nM) is inactive: -0.502, the TEAD-luciferase reporter activity (compound concentration: 2 uM) is inactive: 0.599 and the TEAD-luciferase reporter activity (compound concentration: 10 uM) is active: 5.37.

As to `O=C(Nc1ccccc1Br)N[C@@H]1CCN(c2ccc(C(F)(F)F)cn2)C1`, the TEAD-luciferase reporter activity by setting is: (compound concentration: 200 nM) inactive: -0.247; (compound concentration: 2 uM) inactive: -1.32; (compound concentration: 10 uM) inactive: -1.44.

As for `CCNC(=O)[C@@H]1CCCN1C(=O)[C@H](CCCNC(=N)N)NC(=O)[C@H](CC(C)C)NC(=O)[C@@H](Cc1cn(Cc2ccccc2)cn1)NC(=O)[C@H](Cc1ccc(O)cc1)NC(=O)[C@H](CO)NC(=O)[C@H](Cc1c[nH]c2ccccc12)NC(=O)[C@H](Cc1c[nH]cn1)NC(=O)[C@@H]1CCC(=O)N1` [histrelin], the TEAD-luciferase reporter activity by setting is: (compound concentration: 200 nM) inactive: -0.442; (compound concentration: 2 uM) inactive: -1.15; (compound concentration: 10 uM) inactive: -0.304.

For `Cn1cc(-c2cnn3c(N)c(Br)c(C4CCCNC4)nc23)cn1` (centres undefined), the TEAD-luciferase reporter activity (compound concentration: 200 nM) is inactive: 0.168, the TEAD-luciferase reporter activity (compound concentration: 2 uM) is inactive: 0.588 and the TEAD-luciferase reporter activity (compound concentration: 10 uM) was inactive: -0.308.

In the case of `O=C(O)CCCC(=O)NCCc1c[nH]cn1` [Dicarbamine], the TEAD-luciferase reporter activity runs as follows: (compound concentration: 200 nM) inactive: 0.567; (compound concentration: 2 uM) inactive: 0.176; (compound concentration: 10 uM) inactive: -0.685.

`COc1ccc2c(c1)Oc1ccc(C(=O)O)cc1N=C2C`: the TEAD-luciferase reporter activity (compound concentration: 200 nM) is inactive: 3.4, the TEAD-luciferase reporter activity (compound concentration: 2 uM) was inactive: 0.135 and the TEAD-luciferase reporter activity (compound concentration: 10 uM) is inactive: 0.465.

`CN(C)CCn1cc(C(=O)N2CCC3(CC2)OCc2ccccc23)c2ccc(Cl)cc21`: the TEAD-luciferase reporter activity is inactive: 0.837 (compound concentration: 200 nM), inactive: 0.939 (compound concentration: 2 uM) and inactive: 3.75 (compound concentration: 10 uM).

With `CCc1cc(OCc2ccc(-c3ccccc3-c3nnn[nH]3)cc2)c2ccccc2n1`, the TEAD-luciferase reporter activity is inactive: -0.554 (compound concentration: 200 nM), inactive: -0.399 (compound concentration: 2 uM) and inactive: 4.75 (compound concentration: 10 uM).

In the case of `COCCCOc1cc(C[C@@H](C[C@H](N)[C@@H](O)C[C@H](C(=O)NCC(C)(C)C(N)=O)C(C)C)C(C)C)ccc1OC`, the TEAD-luciferase reporter activity by setting is: (compound concentration: 200 nM) inactive: -2.47; (compound concentration: 2 uM) inactive: -0.0469; (compound concentration: 10 uM) inactive: 2.25.

In the case of `C=CC1=C(C(=O)O)N2C(=O)[C@@H](NC(=O)/C(=N\O)c3csc(N)n3)[C@H]2SC1`, the TEAD-luciferase reporter activity is, setting by setting: (compound concentration: 200 nM) inactive: -1.63; (compound concentration: 10 uM) inactive: -1.88.

`C=CC1=C(C(=O)O)N2C(=O)[C@@H](NC(=O)/C(=N\O)c3csc(N)n3)[C@H]2SC1` [cefdinir]: the TEAD-luciferase reporter activity (compound concentration: 2 uM) was inactive: -2.53.

In the case of `OCC1CNCC(O)C1O` (centres undefined), the TEAD-luciferase reporter activity is, setting by setting: (compound concentration: 200 nM) inactive: 3.1; (compound concentration: 2 uM) inactive: -1.07; (compound concentration: 10 uM) inactive: 0.47.

On to `Nc1nc(=O)c2ncn(CCC(O)CO)c2[nH]1` (centres undefined) [buciclovir], for which the TEAD-luciferase reporter activity (compound concentration: 200 nM) was inactive: 0.85, the TEAD-luciferase reporter activity (compound concentration: 2 uM) was inactive: 0.143 and the TEAD-luciferase reporter activity (compound concentration: 10 uM) is inactive: 0.675.

As to `CN(C)C(=O)C1CCCN(c2nc3ncccc3o2)C1` (centres undefined), the TEAD-luciferase reporter activity is inactive: 1.83 (compound concentration: 200 nM) and inactive: 1.97 (compound concentration: 10 uM).

`C1N2CN3CN1CN(C2)C3`: the TEAD-luciferase reporter activity reads like this: (compound concentration: 200 nM) inactive: -0.877; (compound concentration: 2 uM) inactive: -1.09; (compound concentration: 10 uM) inactive: -0.349.

Regarding `N[C@H](Cc1ccccc1)C(=O)O`, the TEAD-luciferase reporter activity runs as follows: (compound concentration: 200 nM) inactive: 2.46; (compound concentration: 2 uM) inactive: 0.57; (compound concentration: 10 uM) inactive: 0.00179.

`Cc1nc(O)c(C#N)cc1-c1ccc(C#N)cc1`: the TEAD-luciferase reporter activity was inactive: 0.606 (compound concentration: 200 nM), inactive: 0.128 (compound concentration: 2 uM) and inactive: 0.33 (compound concentration: 10 uM).

For the compound `CC(=O)NCCC(=O)N1Cc2ccccc2CC2(CCCN2CCc2ccc(C)cc2)C1` (centres undefined), the TEAD-luciferase reporter activity is inactive: 0.519 (compound concentration: 200 nM) and inactive: 1.03 (compound concentration: 10 uM).

Take `Nc1cc(N)c(N=Nc2ccc(S(N)(=O)=O)cc2)c(C(=O)O)c1`: the TEAD-luciferase reporter activity was inactive: -0.633 (compound concentration: 200 nM), inactive: 1.67 (compound concentration: 2 uM) and inactive: -0.604 (compound concentration: 10 uM).

As for `CCCCC1C(=O)N(c2ccccc2)N(c2ccc(O)cc2)C1=O` (centres undefined) [Oxyphenbutazone], the TEAD-luciferase reporter activity runs as follows: (compound concentration: 200 nM) inactive: -1.63; (compound concentration: 2 uM) inactive: 0.328; (compound concentration: 10 uM) inactive: -0.689.

Take `CC(N)CCCC(C)(C)O` (centres undefined): the TEAD-luciferase reporter activity reads like this: (compound concentration: 200 nM) inactive: 2.03; (compound concentration: 2 uM) inactive: 0.688; (compound concentration: 10 uM) inactive: -0.0362.

As for `CNC(=O)[C@@H](NC(=O)[C@H](CC(C)C)NC(=O)C(S)CCN1C(=O)N(C)C(C)(C)C1=O)C(C)(C)C` (some centres undefined), the TEAD-luciferase reporter activity was inactive: 4.56 (compound concentration: 200 nM), inactive: 1.27 (compound concentration: 2 uM) and inactive: 1.19 (compound concentration: 10 uM).

Consider `CC(=O)OC(C)C(=O)OC(C)C(=O)O` (centres undefined), for which the TEAD-luciferase reporter activity (compound concentration: 200 nM) was inactive: -0.515, the TEAD-luciferase reporter activity (compound concentration: 2 uM) was inactive: -0.812 and the TEAD-luciferase reporter activity (compound concentration: 10 uM) is inactive: -0.482.

With `CC(=O)OCC(=O)[C@@]1(OC(=O)c2ccco2)[C@H](C)C[C@H]2[C@@H]3CCC4=CC(=O)C=C[C@]4(C)[C@@]3(F)[C@@H](O)C[C@@]21C` [dexamethasone acefurate], the TEAD-luciferase reporter activity by setting is: (compound concentration: 200 nM) inactive: -1.55; (compound concentration: 2 uM) inactive: 1.49; (compound concentration: 10 uM) active: 7.43.

These data come from the supplement of paper PMC10735217.
